Assay results reported in paper doi:10.1101/2021.05.11.443667.
Where two headings read alike, the source gives them in different places. Results are given in words; binding and its absence hold for the method and conditions named. For part of these data: In cells and extracts the contact can be indirect. Some results given as binding are weak or reduced against the parent protein; the word gives no strength.

The chains behind the UniProt entries cited, without tags or fusion partners. Residues count along the entry.
UniProt Q9D777, residues 96-241: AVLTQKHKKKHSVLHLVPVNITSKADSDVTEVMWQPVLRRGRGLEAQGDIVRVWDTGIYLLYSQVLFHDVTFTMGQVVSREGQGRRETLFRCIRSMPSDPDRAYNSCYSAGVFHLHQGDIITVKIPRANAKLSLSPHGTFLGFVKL

Legend:
[1] = target: T1, recombinant mouse CD138 (syndecan-1) (mouse) (UniProt P18828); assay: pull-down
T1 sequence: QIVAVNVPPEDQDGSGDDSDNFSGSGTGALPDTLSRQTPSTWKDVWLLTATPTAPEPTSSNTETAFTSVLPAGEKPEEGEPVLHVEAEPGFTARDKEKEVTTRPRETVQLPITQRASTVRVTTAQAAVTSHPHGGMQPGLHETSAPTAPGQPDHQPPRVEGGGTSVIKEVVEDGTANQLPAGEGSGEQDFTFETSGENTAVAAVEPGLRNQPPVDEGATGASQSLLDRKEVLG

[2] = target: T2, serum soluble CD138 (syndecan-1) of MRL/Lpr mice (mouse (endogenous in MRL/Lpr serum)) (UniProt P18828); assay: co-IP
T2 sequence: T1 sequence

[3] = target: T2, serum soluble CD138 (syndecan-1) of MRL/Lpr mice (mouse (endogenous in MRL/Lpr serum)); assay: co-IP; remark: listed apart in the source

Substance | binding [1] | binding [2] | binding [3]
recombinant APRIL (a proliferation inducing ligand) (from UniProt Q9D777 96-241) | binds |  | 
serum APRIL of MRL/Lpr mice (from UniProt Q9D777 96-241) (ligand) |  | binds | binds
